Measured values as given in PubChem BioAssay AID1347426 (Functional Genomics Laboratory (NCATS/FGL), 2020).
Screen size: about 31,000 sequences; about 1,400 (4.5%) were called active.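 Rule for the calls: active = median seed-adjusted z-score above 1 or below -1; inactive = the rest.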 This is one part of the list.

Experiment: Novel Modifiers of Survival Motor Neuron (SMN) Protein: Gene Identification via Genome-wide siRNA Screen;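 note: luminescence tracks full-length SMN protein made from the SMN2 reporter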
Conditions: HEK293T SMN2-luciferase reporter, siRNA knockdown, 72 h; actives lie on both sides
Procedure, shortened: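 HEK293T cells stably carrying an SMN2 promoter/splicing cassette–luciferase reporter were reverse-transfected with 1 pmol siRNA per well (druggable-genome library, 3 siRNAs per gene) and grown 72 h at 37 °C. Luminescence, normalized to negative-control siRNA and log10-transformed, was scored as MAD.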

Row | Sequence | median seed-adjusted z-score
1 | CACCUAUCCUCAAAACUUATT against ZNF117 | inactive: 0.616
2 | GGAAGAUCCAAGAUUGAAATT against NEDD4 | inactive: 0.454
3 | GGAUUACUGCAUUAAACGATT against BUB1B | inactive: -0.579
4 | GUGACGUACAAAAACCUUATT against ARL1 | inactive: 0.347
5 | ACCAAGAGUUCGCAUCUGATT against KLF2 | inactive: 0.359
6 | CCCUAACCCGUUUCCCGAATT against KIFC2 | inactive: 0.932
7 | CUAUGCUACUGUACCAGAATT against CSRP2BP | inactive: -0.526
8 | GCGAGGGCCUUUUUGAGUATT against CRYAA | active: -1.03
9 | CCUUAAGUGCUCUUACUGATT against BNIP1 | inactive: 0.259
10 | GUCCUACAUUGAAUGCAAUTT against NR1I2 | inactive: -0.922
11 | GAGGUUUUAUAUAACCGAUTT against SMC6 | inactive: 0.227
12 | GGACUUGGUCUUACAACUATT against PLK4 | inactive: -0.0888
13 | GAGUAGCAGGAAAAACGAATT against SNX13 | inactive: 0.253
14 | GAAUCACCAGCUAAACUAUTT against STARD6 | inactive: 0.0605
15 | GGACAAAGCAUUGACAAUUTT against KCNJ13 | inactive: 0.327
16 | GAAGAAGCUUUGCUCCUGATT against VNN3 | inactive: 0.343
17 | CAGCUGCGGGAGAUAAUGATT against ANXA8L2 | inactive: -0.147
18 | GGAGACUGAUAUACACUUATT against GDPD4 | inactive: 0.0109
19 | GCCUUUUGGAGGUUCAUAATT against BAI2 | inactive: -0.114
20 | CCCAGUUUCUAGUCUGCUATT against SHKBP1 | inactive: 0.345
21 | GGAAAAUCUUAAACGGCUATT against PIK3AP1 | inactive: 0.0678
22 | GGAUGUACUCUGUUUAUUATT against RBM19 | inactive: 0.204
23 | ACACCAUGAUGAAGACUCATT against IRAK2 | inactive: -0.06

Row | Sequence | median seed-adjusted z-score
24 | CCACUACUGGAAUUCGGAATT against EP300 | inactive: -0.2
25 | GUCUCUCAGGUAAUCCUUATT against SYT11 | inactive: 0.29
26 | CCAUGGACGAGGAACAGGUTT against TESC | inactive: -0.17
27 | GUACAAGAGAUAAUGCAAATT against TFPI | inactive: -0.0076
28 | CGCAUGGACUUACACCAAUTT against KCNH7 | inactive: 0.0639
29 | GGAGACAAAUUCUUCCUGATT against LMO1 | inactive: 0.104
30 | GGGCGAGUAUGACCGAUCATT against CTRL | inactive: 0.0758
31 | GAGACUAAAUCACAACAAATT against KERA | inactive: 0.238
32 | CCAGCUAUUUUUAAGAGUUTT against CHRNA6 | inactive: 0.21
33 | AGAGGACAUUAGGACUUCATT against ZMYND12 | inactive: 0.0551
34 | CAUUAGGAGUGUGCACAUUTT against SLC22A4 | inactive: -0.474
35 | GCACAUGUCAGACAUGGUATT against HDC | inactive: -0.0146
36 | UCAUUGCAAAGUUCCUUAATT against NAIP | inactive: -0.172
37 | AGGAGGUAGAUGAAUCCAATT against PPP1R9B | inactive: -0.244
38 | GCAGGAAAAUGGUUCCUCATT against MKL1 | inactive: -0.138
39 | CGAGAUUUUGUAGAGCACATT against PCK2 | inactive: 0.318
40 | GGAUUAGAACAAUAUCUCATT against UBR2 | inactive: 0.632
41 | GGAUCCACAUCGGAGAAAATT against ZNF629 | inactive: 0.0602
42 | GAAAUUUCAUCUCAAGGAUTT against GTF2A1 | inactive: -0.0209
43 | AGACCAUUGUUUCAGACCATT against SHROOM1 | inactive: 0.0461
44 | AGGAGGAUGCGAAACCCAATT against ACCN4 | inactive: -0.512
45 | GAGAGGAUUGUGACCAUCATT against PCBP3 | inactive: -0.0373
46 | GAAUGGAUCUUACUAAGGUTT against OSBPL9 | inactive: -0.958

Row | Sequence | median seed-adjusted z-score
47 | GACGUGUACUUUGUCAACATT against GPR146 | inactive: 0.405
48 | CCAUAAACAGUACUACGAATT against ITIH1 | inactive: 0.0403
49 | GGAGAAGAGCAACACCAUUTT against ZNF23 | inactive: -0.106
50 | GGAAUGCAAGAGUCAUGAATT against ZNF473 | inactive: -0.166
51 | GCAUGUAUCUGCUUGAUAUTT against ODC1 | active: -1.64
52 | GAGUGAUAUGGAUAGUGAATT against TTC18 | active: -1.15
53 | GCAUCAUCCACUCAAUUUUTT against ANTXR1 | inactive: -0.0849
54 | UGGAAAACCUAAUCACCUATT against PGLYRP4 | inactive: 0.13
55 | GCUACCUUCUGAUGUUGUATT against OAT | inactive: -0.0231
56 | CACCUACUGAUGACUCAAATT against ACY1 | inactive: -0.153
57 | AAACGGAGGCGGUACGAGATT against SYT5 | inactive: 0.704
58 | GAACCCGUGUAUCAGCUGATT against ANGPTL6 | inactive: 0
59 | GAUGAUUCGUUGGUAUCUATT against GRIA2 | active: -1.02
60 | GCAUGAACACUGACAUGGUTT against POGK | inactive: 0.938
61 | GCAAGAACCUGGUGCGCAATT against LRRC4B | inactive: 0.288
62 | CGGUUAGGCUGUGAGGAAATT against PDPK1 | inactive: 0.0807
63 | GAAGCUUACAGAUUCGAUATT against CNTNAP2 | inactive: -0.196
64 | GUCUAUGAAUUGGACAAGATT against PGAM1 | inactive: -0.234
65 | GGAAGUAUCAGAUCUUGAATT against CYFIP2 | inactive: -0.322
66 | GAGUUUAAGCGCAAGCAUATT against HSPA8 | inactive: 0.462
67 | GCUCUGUCACUGAAUACAATT against MPI | inactive: -0.526
68 | CGUCAAAAUCAGGACUGAATT against TAF9 | inactive: 0.829

Copied from the list:
In median seed-adjusted z-score, GGACUUGGUCUUACAACUATT against PLK4 is listed with inactive: -0.0888
In median seed-adjusted z-score, CCAGCUAUUUUUAAGAGUUTT against CHRNA6 is listed with inactive: 0.21
